Data from PubChem BioAssay AID588463 (National Center for Advancing Translational Sciences (NCATS), 2011).
Hit rate of the full screen: of about 1,200 compounds, about 15 (1%) were called active. Not shown: some 7% with an inconclusive outcome. Calls come from the whole dose curve; as a rule, active = well fitted activation curve with a large enough effect; inconclusive = small, poorly fitted or top-dose-only effect; inactive = flat fitted curve, though single readings scatter. The list shows a part of the results.

The compounds below were run against Beta-2 adrenergic receptor (Homo sapiens) (UniProt P07550) (assay: qHTS assay of beta-arrestin-biased ligands of beta2-adrenergic receptor: Hit Validation). Conditions: cell-based beta-arrestin recruitment to beta2AR; Potency: activation; series mostly up to 46.1 µM; activation: at the top concentration.
Source text: The concept of biased agonism is an emerging concept of molecular pharmacology which proposes that seven transmembrane receptors (7TMRs) or G protein-coupled receptors (GPCRs), exist in multiple signaling conformations and complexes and that ligands (either agonists or antagonists) can induce signaling biased responses for distinct signal transduction cascades.
Furthermore, accumulating evidence over the last decade has drawn attention to a novel function of beta-arrestins as signal transducers that scaffold various signaling molecules upon activation of 7TMRs. […] This beta-arrestin-biased signaling presumably leads to distinct physiological outcomes from those by G protein activation.
Additionally, the active receptor conformations which […] on this beta-arrestin signaling are likely different from those activating G protein signaling
The goal of this screening project will be to discover and optimize novel beta-arrestin-biased ligands for beta2-AR signaling. A luminescent cell-based assay for beta2-AR-mediated agonism, known as the Tango assay, has been validated in which ligand binding of a recombinant beta2-AR and subsequent recruitment of a recombinant beta-arrestin lead to the release of the transcriptional activator tTA, which upregulates transcription of a tTA-responsive luciferase gene.
NIH Molecular Libraries Probe Production Network [MLPCN]
NIH Chemical Genomics Center [NCGC]
PI: Bryan Roth (UNC) and Bob Lefkowitz (Duke)
NCGC Assay Protocol Summary:
Tango cells were dispensed into white, solid, tissue-culture-treated 1536-well plates at 1500 cells/well in DMEM, containing 1% fetal bovine serum (FBS). Then, 23 nL of compounds or DMSO were delivered to each well using a pin tool. Plates were incubated at 37 degrees C, 5% CO2 for 18 hr. Then 2.5 uL luminescent substrate mix (in-house prepared: 150 mM Tris-Cl, pH 7.6, 3 mM MgCl2, 1% Triton X-100, 5 mM DTT, 0.5 mM CoA, 0.15 mM ATP, 0.44 mM D-luciferin, final concentrations) was added to each well. Plates were then incubated for 15 minutes at room temperature, and subsequently measured on a ViewLux plate reader for luminescent signal using a clear filter with a 10 second exposure and 2x binning. The %Activity was determined from the corrected luminescence values.
Concentration-response curves were fitted to the signals arising from the resulting luminescence. The concentration-effect curves were then classified based on curve quality (r2), response magnitude and degree of measured activity, and compounds were subsequently categorized based on their curve class.
Keywords: biased agonism, beta2-AR, beta-arrestin, GPCR, 7TMR, Tango, luminescence, MLSMR, MLPCN, NIH Roadmap, qHTS, NCGC
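Note: plate controls were DMSO for no effect and maximal isoproterenol or metaproterenol response for full effect.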

Row | Compound | activation
1 | C=CC[n+]1c(-c2ccc(C)cc2)csc1NNC(=O)Nc1ccccc1 | inactive: -2.26%
2 | CC1=NN(C(N)=S)C(=O)C1N=Nc1cccc([N+](=O)[O-])c1 (configuration not stated) | inactive: -1.35%
3 | COc1ccc(CNC(=S)N/N=C/c2ccc(OC)c(OC)c2)cc1 | inactive: 7.73%
4 | Cn1c(-c2csc(-c3ccccc3)n2)n[nH]c1=S | inactive: -4.54%
5 | CCn1c(NC(=O)C2CCCCC2)nc2ccccc21 | inactive: -1.58%
6 | Cc1cc(=S)nc(-c2ccccn2)[nH]1 | inactive: -4.06%
7 | CC(C)(C)NNC(=S)Nc1cccc(C(F)(F)F)c1 | inactive: -2.43%
8 | COc1ccc(NC(=S)NC(=O)c2ccc(Br)o2)cc1 | inactive: -3.83%
9 | O=C(N/N=C/c1cn(-c2ccccc2)nc1-c1cc2ccccc2o1)c1cccnc1 | inactive: -6.28%
10 | NC(=S)N/N=C\c1ccc(-c2cccc(Cl)c2Cl)o1 | inactive: -2.78%
11 | CC1=NOC(=O)/C1=C\c1ccc(-c2cccc(Cl)c2)o1 | inactive: -3.81%
12 | O=C(N/N=C/C(Br)=C\c1ccccc1)c1ccc2nc[nH]c2c1 | inactive: -1.86%
13 | CC1=NN(C(N)=S)C(=O)C1N=Nc1ccc([N+](=O)[O-])cc1 (configuration not stated) | inactive: -2.82%
14 | CNC(=S)N/N=C/C1=CCC2CC1C2(C)C (configuration not stated) | inactive: -0.49%
15 | CCc1nnc(NC(=O)CN2CCN(Cc3cccc(F)c3)CC2)s1 | inactive: -1.33%
16 | Cc1ccc(-c2nc(CSCC(=O)NC3CCN(Cc4ccccc4)CC3)c(C)o2)cc1 | inactive: 4.73%
17 | CCc1cc2c(=O)[nH]c(-c3ccccn3)nc2s1 | inactive: -2.3%
18 | COc1ccc(NC(=S)c2ccc3ccccc3n2)cc1 | inactive: -2.14%
19 | Oc1ccc(NCc2cccs2)cc1 | inactive: -3.55%

In the list so far, these have nitrogen in an aromatic ring.
Row | Compound | activation
1 | C=CC[n+]1c(-c2ccc(C)cc2)csc1NNC(=O)Nc1ccccc1 | inactive: -2.26%
4 | Cn1c(-c2csc(-c3ccccc3)n2)n[nH]c1=S | inactive: -4.54%
5 | CCn1c(NC(=O)C2CCCCC2)nc2ccccc21 | inactive: -1.58%
6 | Cc1cc(=S)nc(-c2ccccn2)[nH]1 | inactive: -4.06%
9 | O=C(N/N=C/c1cn(-c2ccccc2)nc1-c1cc2ccccc2o1)c1cccnc1 | inactive: -6.28%
12 | O=C(N/N=C/C(Br)=C\c1ccccc1)c1ccc2nc[nH]c2c1 | inactive: -1.86%
15 | CCc1nnc(NC(=O)CN2CCN(Cc3cccc(F)c3)CC2)s1 | inactive: -1.33%
16 | Cc1ccc(-c2nc(CSCC(=O)NC3CCN(Cc4ccccc4)CC3)c(C)o2)cc1 | inactive: 4.73%
17 | CCc1cc2c(=O)[nH]c(-c3ccccn3)nc2s1 | inactive: -2.3%
18 | COc1ccc(NC(=S)c2ccc3ccccc3n2)cc1 | inactive: -2.14%

Rewritten in markdown: two of the compounds above

| Row | Compound | activation |
| --- | --- | --- |
| 1 | C=CC[n+]1c(-c2ccc(C)cc2)csc1NNC(=O)Nc1ccccc1 | inactive: -2.26% |
| 2 | CC1=NN(C(N)=S)C(=O)C1N=Nc1cccc([N+](=O)[O-])c1 (configuration not stated) | inactive: -1.35% |

Next entries:

Row | Compound | activation
20 | Cc1cc(/C=N/NC(N)=S)c(C)n1-c1ccc(Cl)c(Cl)c1 | inactive: -2.08%
21 | Cc1ccccc1NC(=O)CSc1nc(N)c2c3c(sc2n1)CSC(C)(C)C3 | inactive: -2.74%
22 | COC(=O)N1C(=O)[C@@](c2ccccc2)(C2CCCC2)N1C(=O)OC | inactive: 0.318%
23 | COc1ccc2nc(NC(=S)N(C)C)sc2c1 | inactive: -2.69%
24 | Cc1cc(O)c(C(C)C)cc1C1(c2cc(C(C)C)c(O)cc2C)OC(=O)c2ccccc21 | inactive: -3.75%
25 | CCNC(=S)N/N=C(\C)c1cccc(OC)c1 | inactive: -2.69%
26 | Cn1c(SCC(=O)NC2CC2)nnc1-c1cccs1 | inactive: -3.46%
27 | CC(C)C(C)NC(=O)CSc1nnc(-c2c[nH]c3ccccc23)o1 (configuration not stated) | inactive: -3.28%
28 | CC(C)c1ccc(C(=O)CSc2ncn[nH]2)cc1 | inactive: -2.7%
29 | C=CCN(CC=C)C(=S)NC(=O)c1ccc(OC)cc1 | inactive: -1.86%
30 | Cc1ccc(C)c(/C=C/C(=O)c2ccccc(=O)c2O)c1 | inactive: -2.54%
31 | CC(=O)/C(=N\Nc1ccc(Cl)cc1Cl)Sc1cccc2cccnc12 | inactive: -3.04%
32 | O=C(Nc1cc(=O)[nH]c2ncnn12)c1ccccc1 | inactive: -4.34%
33 | COc1cc(/C(C)=N/NC(=S)NC(C)C)cc(OC)c1OC | inactive: -1.14%
34 | Cc1cccc(NC(=O)/C=C/c2ccc([N+](=O)[O-])s2)c1 | inactive: -1.06%
35 | COc1cc2sc3ccc(-c4ccc(CN5CCOCC5)cc4)cc3c(=O)c2cc1OC | inactive: -3.75%
36 | Fc1ccc(/C=N/NC(=S)Nc2cccnc2)cc1 | inactive: -5.11%
37 | CCOC(=O)C1CCN(Cc2ccc(C(=O)OC)cc2)CC1 | inactive: -2.98%

Row | Compound | activation
39 | C#CCn1c(=NC(=O)CSC(C)=O)sc2cc(F)ccc21 | inactive: -6.9%
40 | CCOC(=O)c1c(C)nc2c(c1-c1ccccc1)C(=O)CC(C)(C)C2 | inactive: -2.51%
41 | CC(C)c1ccc(Nc2nnc(SC3CCOC3=O)s2)cc1 (configuration not stated) | inactive: -2.2%
42 | O=C(CSc1cccc[n+]1[O-])c1cc(Cl)ccc1Cl | inactive: -0.362%
43 | COCCCNC(=S)N/N=C/c1ccccc1O | inactive: 0.208%
44 | O=C(O)c1ccc(/C=N/Nc2nnnn2-c2ccccc2)cc1 | inactive: 0.504%
45 | CCNC(=S)N/N=C/c1cc(C)n(-c2ccc(Cl)cc2)c1C | inactive: -4.86%
46 | COc1ccc(N2C(=O)C3C(C2=O)C(C(=O)c2ccc(Cl)cc2)N2CCCC32)cc1 (configuration not stated) | inactive: -1.29%
47 | CCOc1ccc(NC(=O)CN(c2ccc([N+](=O)[O-])cc2)S(=O)(=O)c2ccccc2)cc1 | inactive: 3.12%
48 | C=CCn1c(O)c(N=NC(=S)Nc2cccc(C)c2)c2ccccc21 | inactive: -6.44%
49 | CNC(=S)N/N=C1\C(=O)c2cccc3cccc1c23 | inactive: -3.52%
50 | O=C(CN1C(=O)C2C3CC(C(Br)C3Br)C2C1=O)N1CCN(Cc2ccccc2)CC1 (configuration not stated) | inactive: -1.93%
51 | CCCCCOCC1CC(C/C(C)=N/NC(N)=S)C(=O)O1 (configuration not stated) | inactive: -1.64%
52 | O=C(CNC(=O)c1ccc2c(c1)OCO2)N/N=C(Br)/C=C/c1ccccc1 | inactive: -4.42%
53 | COc1cccc(N2CCN(C(=O)/C=C/c3ccco3)CC2)c1 | inactive: -1.71%
54 | C=CCNC(=S)NN=C1CCCCCCC1 | inactive: -2.44%
55 | Cc1ccccc1NC(=S)N=Nc1c(O)n(C)c2ccc(S(=O)(=O)N3CCOCC3)cc12 | inactive: -3.43%
56 | OC(CC1CC12c1ccccc1-c1ncccc12)(c1ccccc1)c1ccccc1 (configuration not stated) | inactive: 9.42%
57 | COc1ccc(/C(C)=N/NC(=S)NCCc2ccccc2)cc1 | inactive: 2.75%
